# Source: PubChem BioAssay AID1259308 (NCATS, 2017)
# Test: 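Genes whose loss raises luciferase production in HEK293 cells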 (primary screen)
# Cell system: human HEK293 embryonic kidney cells stably expressing firefly luciferase (HEK-CMV-Luc2-Hygro)
# Reagents: single siRNA against human genes, 0.8 pmol siRNA per well
# Duration: 72 h
# Detection: 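Reporter luminescence and viable-cell signal on separate replicate plates, given as percent of non-targeting control and median/MAD z-scores, plus per-cell luciferase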
# Scale: total luciferase, z-score: higher = more reporter protein produced
# Hit rule: 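Active when the median/MAD z-score for overall luciferase is greater than 3; a gene was taken forward for validation with new siRNAs if at least two of its three siRNAs passed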
# Calls: active = raised luciferase; inactive = no rise
# The whole screen tested about 59,000 reagents; this is an unselected part. In the full data, about 1,510 (2.6%) were called active. 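Calls use total luciferase alone and ignore viability, so some active siRNAs may act by altering cell number.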 Reagents against one gene are numbered here. Not all columns of the deposit are shown.
gene,reagent no.,"total luciferase, z-score",activity call
UBE2D2 (GeneID 7322),1,-0.358,inactive
UBE2D2 (GeneID 7322),2,0.231,inactive
UBE2D2 (GeneID 7322),3,1.94,inactive
AGK (GeneID 55750),1,1.96,inactive
AGK (GeneID 55750),2,0.692,inactive
AGK (GeneID 55750),3,-0.272,inactive
TMEM43 (GeneID 79188),1,-0.847,inactive
TMEM43 (GeneID 79188),2,-1.29,inactive
TMEM43 (GeneID 79188),3,-0.147,inactive
PAQR9 (GeneID 344838),1,0.701,inactive
PAQR9 (GeneID 344838),2,0.164,inactive
PAQR9 (GeneID 344838),3,0.168,inactive
ZSCAN2 (GeneID 54993),1,1.47,inactive
ZSCAN2 (GeneID 54993),2,2.94,inactive
ZSCAN2 (GeneID 54993),3,-0.416,inactive
SLC30A2 (GeneID 7780),1,0.441,inactive
SLC30A2 (GeneID 7780),2,-0.756,inactive
SLC30A2 (GeneID 7780),3,0.28,inactive
PTP4A3 (GeneID 11156),1,-0.307,inactive
PTP4A3 (GeneID 11156),2,0.649,inactive
PTP4A3 (GeneID 11156),3,0.402,inactive
NUP133 (GeneID 55746),1,-1.16,inactive
NUP133 (GeneID 55746),2,-0.948,inactive
NUP133 (GeneID 55746),3,2.2,inactive
FXYD7 (GeneID 53822),1,0.0834,inactive
FXYD7 (GeneID 53822),2,-0.323,inactive
FXYD7 (GeneID 53822),3,1.44,inactive
RAB33B (GeneID 83452),1,0.0815,inactive
RAB33B (GeneID 83452),2,2.31,inactive
RAB33B (GeneID 83452),3,-0.886,inactive
SNX15 (GeneID 29907),1,-0.602,inactive
SNX15 (GeneID 29907),2,2.27,inactive
SNX15 (GeneID 29907),3,1.45,inactive
TAL1 (GeneID 6886),1,1.42,inactive
TAL1 (GeneID 6886),2,0.852,inactive
TAL1 (GeneID 6886),3,-0.304,inactive
TSPO (GeneID 706),1,-0.479,inactive
TSPO (GeneID 706),2,-1,inactive
TSPO (GeneID 706),3,-1.77,inactive
HSD17B14 (GeneID 51171),1,0.0369,inactive
HSD17B14 (GeneID 51171),2,-2.18,inactive
HSD17B14 (GeneID 51171),3,1.06,inactive
OR2T1 (GeneID 26696),1,-0.382,inactive
OR2T1 (GeneID 26696),2,0.43,inactive
OR2T1 (GeneID 26696),3,2.48,inactive
RPL10 (GeneID 6134),1,-0.896,inactive
RPL10 (GeneID 6134),2,-2.06,inactive
RPL10 (GeneID 6134),3,-2.81,inactive
NPAT (GeneID 4863),1,2.93,inactive
NPAT (GeneID 4863),2,3.7,active
NPAT (GeneID 4863),3,0.53,inactive
PPP1R42 (GeneID 286187),1,0.154,inactive
PPP1R42 (GeneID 286187),2,-0.545,inactive
PPP1R42 (GeneID 286187),3,0.423,inactive
TMEM86A (GeneID 144110),1,1,inactive
TMEM86A (GeneID 144110),2,3.07,active
TMEM86A (GeneID 144110),3,-0.478,inactive
